± gives the standard deviation of the averaged measurements. Only a part is listed here, and it is no random draw.
Compound: Nc1ncnc2c1ncn2[C@@H]1O[C@H](COP(=O)(O)OP(=O)(O)OP(=O)(O)O)[C@@H](O)[C@H]1O [adenosine triphosphate]
Assay: NP40-soluble protein abundance relative to vehicle (solubility fold change) (ratio); higher = more soluble protein in presence of ATP
Outline: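 Each value is a fold change relative to the detergent-processed vehicle, calculated per replicate from vsn-normalised intensities. Jurkat crude lysate received eight concentrations (0.1 to 10 mM) for 10 min at room temperature and 3 min at 37 °C, then was solubilised in 0.8% NP40 with benzonase (60 min, 4 °C). The ultracentrifuged supernatant was TMT-labelled and run by LC-MS/MS in three independent experiments.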

The chains behind the UniProt entries cited, without tags or fusion partners. Where a name states a change or a piece, a line headed by the entry shows the natural chain unless it says otherwise.
UniProt Q587I9: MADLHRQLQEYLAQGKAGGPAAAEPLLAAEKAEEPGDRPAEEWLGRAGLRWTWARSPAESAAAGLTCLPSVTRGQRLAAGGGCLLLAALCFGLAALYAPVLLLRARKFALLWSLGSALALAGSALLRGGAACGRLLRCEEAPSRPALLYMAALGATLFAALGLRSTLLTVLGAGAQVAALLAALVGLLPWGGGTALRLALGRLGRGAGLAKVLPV
UniProt Q53EL6: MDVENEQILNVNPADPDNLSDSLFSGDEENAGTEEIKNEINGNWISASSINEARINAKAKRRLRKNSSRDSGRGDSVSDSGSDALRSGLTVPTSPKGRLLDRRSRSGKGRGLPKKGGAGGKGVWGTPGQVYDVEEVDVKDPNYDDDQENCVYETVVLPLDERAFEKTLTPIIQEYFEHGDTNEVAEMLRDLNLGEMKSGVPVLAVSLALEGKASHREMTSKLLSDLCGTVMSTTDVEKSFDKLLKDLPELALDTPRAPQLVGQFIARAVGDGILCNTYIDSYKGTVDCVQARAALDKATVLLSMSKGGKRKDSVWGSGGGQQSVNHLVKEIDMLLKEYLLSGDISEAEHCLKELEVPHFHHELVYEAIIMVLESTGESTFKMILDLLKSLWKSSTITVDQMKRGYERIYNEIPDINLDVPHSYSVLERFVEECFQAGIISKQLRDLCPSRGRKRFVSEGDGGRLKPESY
UniProt Q5TEU4: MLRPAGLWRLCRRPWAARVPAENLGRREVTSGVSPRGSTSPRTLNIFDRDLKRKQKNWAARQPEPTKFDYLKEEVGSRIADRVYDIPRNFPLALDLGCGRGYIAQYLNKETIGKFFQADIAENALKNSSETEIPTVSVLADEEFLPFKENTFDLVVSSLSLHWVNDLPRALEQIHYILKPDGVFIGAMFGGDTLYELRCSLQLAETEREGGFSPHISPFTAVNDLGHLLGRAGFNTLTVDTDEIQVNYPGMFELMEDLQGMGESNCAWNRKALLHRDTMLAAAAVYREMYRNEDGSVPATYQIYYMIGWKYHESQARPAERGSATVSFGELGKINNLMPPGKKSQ
UniProt Q66PJ3: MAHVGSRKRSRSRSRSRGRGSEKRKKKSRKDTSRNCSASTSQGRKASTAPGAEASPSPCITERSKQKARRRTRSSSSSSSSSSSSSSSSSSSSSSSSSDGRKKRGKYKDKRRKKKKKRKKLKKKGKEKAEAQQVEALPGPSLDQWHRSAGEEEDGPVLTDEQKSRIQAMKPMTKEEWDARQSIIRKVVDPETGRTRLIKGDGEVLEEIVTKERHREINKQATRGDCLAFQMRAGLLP
UniProt Q5JS54: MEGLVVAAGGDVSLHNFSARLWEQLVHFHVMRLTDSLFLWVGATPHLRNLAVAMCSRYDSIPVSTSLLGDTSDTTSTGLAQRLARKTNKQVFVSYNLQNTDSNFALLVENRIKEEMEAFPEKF
UniProt Q6PD74: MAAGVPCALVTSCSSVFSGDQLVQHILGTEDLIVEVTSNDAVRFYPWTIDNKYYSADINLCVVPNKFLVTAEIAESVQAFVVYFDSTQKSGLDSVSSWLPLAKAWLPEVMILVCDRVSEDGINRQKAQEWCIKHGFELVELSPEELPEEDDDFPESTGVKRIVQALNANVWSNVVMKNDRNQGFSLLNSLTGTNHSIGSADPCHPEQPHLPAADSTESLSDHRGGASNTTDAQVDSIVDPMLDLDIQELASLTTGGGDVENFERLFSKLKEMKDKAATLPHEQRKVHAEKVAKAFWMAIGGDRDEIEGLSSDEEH
UniProt Q5JTD0: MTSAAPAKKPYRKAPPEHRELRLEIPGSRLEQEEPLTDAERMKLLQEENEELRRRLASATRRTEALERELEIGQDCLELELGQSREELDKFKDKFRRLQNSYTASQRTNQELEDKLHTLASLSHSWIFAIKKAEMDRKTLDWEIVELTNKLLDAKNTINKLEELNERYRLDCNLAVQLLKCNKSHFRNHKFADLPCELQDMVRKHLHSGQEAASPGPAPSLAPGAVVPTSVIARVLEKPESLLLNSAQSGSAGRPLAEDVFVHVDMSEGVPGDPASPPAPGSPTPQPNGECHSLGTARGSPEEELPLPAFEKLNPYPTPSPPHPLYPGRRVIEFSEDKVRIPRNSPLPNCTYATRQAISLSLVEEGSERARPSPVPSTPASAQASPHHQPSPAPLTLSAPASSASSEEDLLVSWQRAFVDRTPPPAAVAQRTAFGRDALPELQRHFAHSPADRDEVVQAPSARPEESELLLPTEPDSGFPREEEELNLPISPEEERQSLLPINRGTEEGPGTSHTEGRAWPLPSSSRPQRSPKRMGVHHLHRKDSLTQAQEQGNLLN
UniProt Q6P6C2: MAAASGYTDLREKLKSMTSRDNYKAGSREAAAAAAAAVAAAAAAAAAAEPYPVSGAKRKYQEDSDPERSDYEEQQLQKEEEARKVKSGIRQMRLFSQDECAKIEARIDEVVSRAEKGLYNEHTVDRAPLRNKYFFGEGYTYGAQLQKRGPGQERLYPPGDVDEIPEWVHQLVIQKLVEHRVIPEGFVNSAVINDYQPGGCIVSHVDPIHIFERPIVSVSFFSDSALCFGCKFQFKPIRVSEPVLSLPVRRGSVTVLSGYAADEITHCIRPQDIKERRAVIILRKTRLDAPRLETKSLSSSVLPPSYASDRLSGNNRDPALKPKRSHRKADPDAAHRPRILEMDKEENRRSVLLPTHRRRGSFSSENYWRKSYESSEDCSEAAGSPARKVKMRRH
UniProt Q5VUA4: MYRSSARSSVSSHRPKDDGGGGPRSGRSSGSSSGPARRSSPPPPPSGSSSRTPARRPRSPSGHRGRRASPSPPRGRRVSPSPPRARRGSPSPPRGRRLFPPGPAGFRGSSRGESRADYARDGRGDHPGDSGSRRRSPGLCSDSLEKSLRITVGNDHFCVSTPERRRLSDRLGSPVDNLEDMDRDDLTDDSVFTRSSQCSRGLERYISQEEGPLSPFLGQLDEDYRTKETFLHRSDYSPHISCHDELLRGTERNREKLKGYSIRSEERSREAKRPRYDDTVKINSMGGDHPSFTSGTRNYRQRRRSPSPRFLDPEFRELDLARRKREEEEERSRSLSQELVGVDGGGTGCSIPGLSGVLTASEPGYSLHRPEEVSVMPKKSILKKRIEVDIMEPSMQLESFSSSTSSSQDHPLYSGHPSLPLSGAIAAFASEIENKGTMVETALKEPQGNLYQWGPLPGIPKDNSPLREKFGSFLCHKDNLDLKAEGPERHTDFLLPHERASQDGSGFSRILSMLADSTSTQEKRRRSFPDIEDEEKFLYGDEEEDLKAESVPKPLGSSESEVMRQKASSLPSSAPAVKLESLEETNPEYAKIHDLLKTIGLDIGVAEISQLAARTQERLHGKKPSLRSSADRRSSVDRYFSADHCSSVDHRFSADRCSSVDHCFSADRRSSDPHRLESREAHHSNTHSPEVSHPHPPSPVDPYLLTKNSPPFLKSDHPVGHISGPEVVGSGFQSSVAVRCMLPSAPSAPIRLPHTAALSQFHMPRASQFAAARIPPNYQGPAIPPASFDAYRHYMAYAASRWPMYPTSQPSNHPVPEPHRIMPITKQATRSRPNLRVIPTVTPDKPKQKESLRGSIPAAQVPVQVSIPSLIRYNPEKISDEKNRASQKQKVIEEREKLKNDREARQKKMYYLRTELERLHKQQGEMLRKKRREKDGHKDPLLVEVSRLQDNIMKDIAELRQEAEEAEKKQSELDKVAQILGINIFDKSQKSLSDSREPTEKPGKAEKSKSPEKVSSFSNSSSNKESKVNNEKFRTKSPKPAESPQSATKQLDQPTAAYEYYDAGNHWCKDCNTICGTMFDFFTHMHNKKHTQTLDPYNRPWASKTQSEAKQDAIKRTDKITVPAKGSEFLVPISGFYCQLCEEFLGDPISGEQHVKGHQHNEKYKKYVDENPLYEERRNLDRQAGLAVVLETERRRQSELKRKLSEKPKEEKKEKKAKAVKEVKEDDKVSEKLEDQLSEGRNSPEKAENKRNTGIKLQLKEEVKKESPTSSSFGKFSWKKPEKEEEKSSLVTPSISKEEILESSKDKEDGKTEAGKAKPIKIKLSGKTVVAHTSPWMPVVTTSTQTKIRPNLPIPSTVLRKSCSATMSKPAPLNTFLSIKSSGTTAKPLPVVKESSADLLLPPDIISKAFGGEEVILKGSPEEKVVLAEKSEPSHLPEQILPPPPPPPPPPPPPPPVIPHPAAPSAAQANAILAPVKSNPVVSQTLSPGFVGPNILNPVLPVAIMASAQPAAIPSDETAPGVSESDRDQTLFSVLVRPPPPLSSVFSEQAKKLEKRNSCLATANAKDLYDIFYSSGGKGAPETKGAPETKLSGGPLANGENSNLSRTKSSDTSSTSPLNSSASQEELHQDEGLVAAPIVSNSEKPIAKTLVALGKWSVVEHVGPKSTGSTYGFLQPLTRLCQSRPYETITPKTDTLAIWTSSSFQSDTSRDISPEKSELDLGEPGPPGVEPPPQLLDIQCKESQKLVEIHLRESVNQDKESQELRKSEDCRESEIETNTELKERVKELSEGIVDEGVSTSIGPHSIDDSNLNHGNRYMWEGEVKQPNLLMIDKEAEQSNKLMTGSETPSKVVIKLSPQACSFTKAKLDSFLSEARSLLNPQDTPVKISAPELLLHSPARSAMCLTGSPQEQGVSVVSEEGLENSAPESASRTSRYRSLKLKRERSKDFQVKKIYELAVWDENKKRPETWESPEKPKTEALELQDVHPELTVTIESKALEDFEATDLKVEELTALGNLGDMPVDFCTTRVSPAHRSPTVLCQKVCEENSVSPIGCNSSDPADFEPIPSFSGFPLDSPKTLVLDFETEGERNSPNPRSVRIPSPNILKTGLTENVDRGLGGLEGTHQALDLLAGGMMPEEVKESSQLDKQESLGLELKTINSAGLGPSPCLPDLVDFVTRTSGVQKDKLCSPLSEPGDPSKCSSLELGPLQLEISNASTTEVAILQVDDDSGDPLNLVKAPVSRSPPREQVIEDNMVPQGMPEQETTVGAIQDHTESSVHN
UniProt Q6PCB8: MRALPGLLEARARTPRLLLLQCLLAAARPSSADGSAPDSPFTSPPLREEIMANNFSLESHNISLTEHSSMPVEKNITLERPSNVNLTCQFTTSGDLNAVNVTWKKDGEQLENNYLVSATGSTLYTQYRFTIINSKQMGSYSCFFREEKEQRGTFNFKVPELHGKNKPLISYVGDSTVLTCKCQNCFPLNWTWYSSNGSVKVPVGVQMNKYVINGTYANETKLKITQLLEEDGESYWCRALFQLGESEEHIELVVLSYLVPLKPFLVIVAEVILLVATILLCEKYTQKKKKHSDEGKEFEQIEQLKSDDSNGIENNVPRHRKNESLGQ
UniProt Q4LE39: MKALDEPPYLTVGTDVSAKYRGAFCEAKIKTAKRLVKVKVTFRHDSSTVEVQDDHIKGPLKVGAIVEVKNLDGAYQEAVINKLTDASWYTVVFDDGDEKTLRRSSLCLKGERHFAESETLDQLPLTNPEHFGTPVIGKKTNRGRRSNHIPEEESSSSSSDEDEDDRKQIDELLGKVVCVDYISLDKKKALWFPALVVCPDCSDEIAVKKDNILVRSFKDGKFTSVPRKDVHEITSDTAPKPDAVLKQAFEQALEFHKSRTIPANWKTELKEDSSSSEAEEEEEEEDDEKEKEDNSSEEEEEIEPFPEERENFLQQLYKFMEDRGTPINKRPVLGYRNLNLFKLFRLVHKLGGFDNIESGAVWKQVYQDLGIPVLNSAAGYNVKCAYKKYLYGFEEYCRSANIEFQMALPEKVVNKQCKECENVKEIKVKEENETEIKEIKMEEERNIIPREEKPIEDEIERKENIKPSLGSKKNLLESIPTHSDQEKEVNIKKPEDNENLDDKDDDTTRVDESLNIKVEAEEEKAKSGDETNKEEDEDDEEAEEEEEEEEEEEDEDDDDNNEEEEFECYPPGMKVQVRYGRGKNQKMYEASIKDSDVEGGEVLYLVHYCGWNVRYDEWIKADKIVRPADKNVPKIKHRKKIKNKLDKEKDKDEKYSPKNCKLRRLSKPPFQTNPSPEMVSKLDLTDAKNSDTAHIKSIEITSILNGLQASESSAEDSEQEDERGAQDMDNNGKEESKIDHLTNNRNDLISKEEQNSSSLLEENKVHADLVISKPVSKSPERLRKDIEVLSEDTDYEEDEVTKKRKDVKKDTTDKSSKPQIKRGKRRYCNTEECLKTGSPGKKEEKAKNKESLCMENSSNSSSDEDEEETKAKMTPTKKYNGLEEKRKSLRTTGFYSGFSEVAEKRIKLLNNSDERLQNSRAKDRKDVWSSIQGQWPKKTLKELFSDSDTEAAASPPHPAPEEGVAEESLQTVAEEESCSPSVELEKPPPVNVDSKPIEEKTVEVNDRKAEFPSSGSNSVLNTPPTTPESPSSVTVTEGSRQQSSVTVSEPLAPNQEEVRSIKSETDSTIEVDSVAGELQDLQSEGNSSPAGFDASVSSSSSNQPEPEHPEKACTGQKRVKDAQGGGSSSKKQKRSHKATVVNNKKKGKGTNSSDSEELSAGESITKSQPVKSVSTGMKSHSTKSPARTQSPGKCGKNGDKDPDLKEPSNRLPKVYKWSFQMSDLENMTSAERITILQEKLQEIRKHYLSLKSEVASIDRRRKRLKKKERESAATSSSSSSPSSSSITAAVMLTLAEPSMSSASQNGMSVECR

Target	NP40-soluble protein abundance (concentration: 1mM)	NP40-soluble protein abundance (concentration: 2mM)	NP40-soluble protein abundance (concentration: 4mM)	NP40-soluble protein abundance (concentration: 6mM)	NP40-soluble protein abundance (concentration: 8mM)	NP40-soluble protein abundance (concentration: 10mM)
UBAP2 (UniProt Q5T6F2)	0.935 ± 0.063	0.961 ± 0.031	0.955 ± 0.019	1.01 ± 0.037	0.944 ± 0.02	0.967 ± 0.042
RARS2 (UniProt Q5T160)	1.02 ± 0.12	1 ± 0.069	0.995 ± 0.035	0.898 ± 0.087	1.02 ± 0.046	0.985 ± 0.011
UniProt Q6IE81 and related entries	1.14 ± 0.21	1.2 ± 0.12	1.29 ± 0.15	1.16 ± 0.26	1.15 ± 0.25	1.23 ± 0.24
UniProt Q5BKY9 and related entries	1.13 ± 0.044	1.08 ± 0.082	1.04 ± 0.099	1.06 ± 0.1	1.05 ± 0.099	0.982 ± 0.12
PITRM1 (UniProt Q5JRX3)	1.01 ± 0.045	0.991 ± 0.051	0.979 ± 0.038	0.974 ± 0.075	0.974 ± 0.026	0.972 ± 0.059
UniProt Q5JSZ5	1.02 ± 0.094	1.03 ± 0.048	1.15 ± 0.093	1.27 ± 0.12	1.31 ± 0.074	1.51 ± 0.1
UniProt Q5THK1 and related entries	0.975 ± 0.11	0.888 ± 0.074	0.859 ± 0.09	0.903 ± 0.075	0.864 ± 0.086	0.922 ± 0.094
NOM1 (UniProt Q5C9Z4)	1.1 ± 0.025	1.12 ± 0.019	1.17 ± 0.062	1.19 ± 0.087	1.23 ± 0.074	1.29 ± 0.072
DNAL1 (UniProt Q4LDG9)	0.989 ± 0.064	0.958 ± 0.016	1.015 ± 0.01	1.05 ± 0.1	0.939 ± 0.059	0.819 ± 0.15
UniProt Q5VWN6	1.24 ± 0.051	1.22 ± 0.068	1.31 ± 0.1	1.25 ± 0.099	1.27 ± 0.12	1.27 ± 0.063
UniProt Q5F1R6 and related entries	1.01 ± 0.051	1.09 ± 0.085	1.14 ± 0.071	1.12 ± 0.039	1.19 ± 0.017	1.24 ± 0.073
SFT2D3 (UniProt Q587I9)	0.983 ± 0.079	1 ± 0.054	1.02 ± 0.049	1.03 ± 0.1	0.97 ± 0.041	1 ± 0.058
UniProt Q6P087 and related entries	0.999 ± 0.11	1.03 ± 0.092	1.13 ± 0.12	1.13 ± 0.029	1.19 ± 0.19	1.35 ± 0.16
UniProt Q53EL6 and related entries	1.34 ± 0.13	1.41 ± 0.13	1.52 ± 0.19	1.66 ± 0.2	1.55 ± 0.14	1.55 ± 0.18
UniProt Q5TEU4 and related entries	1.041 ± 0.0052	1.06 ± 0.028	1.019 ± 0.0085	0.982 ± 0.034	0.999 ± 0.034	1.022 ± 0.0042
Q5JVZ5 and related entries (UniProt Q96JJ3)	1.07 ± 0.055	1.04 ± 0.047	1.02 ± 0.061	1.01 ± 0.057	1.03 ± 0.053	0.999 ± 0.04
SLC25A24 (UniProt Q6NUK1)	0.843 ± 0.1	0.894 ± 0.13	0.86 ± 0.08	0.829 ± 0.12	0.808 ± 0.08	0.881 ± 0.1
UniProt Q6P444	0.886 ± 0.073	0.84 ± 0.083	0.989 ± 0.017	0.948 ± 0.069	0.986 ± 0.074	1.05 ± 0.015
Q5STZ8 and related entries (UniProt Q8NE71)	1.02 ± 0.015	1.02 ± 0.025	1.05 ± 0.037	1.07 ± 0.065	1.08 ± 0.054	1.09 ± 0.046
UniProt Q66PJ3 and related entries	1.12 ± 0.056	1.08 ± 0.034	1.08 ± 0.045	1.08 ± 0.042	1.01 ± 0.0044	0.939 ± 0.052

Target	NP40-soluble protein abundance (concentration: 1mM)	NP40-soluble protein abundance (concentration: 2mM)	NP40-soluble protein abundance (concentration: 4mM)	NP40-soluble protein abundance (concentration: 6mM)	NP40-soluble protein abundance (concentration: 8mM)	NP40-soluble protein abundance (concentration: 10mM)
UniProt Q5JVF3 and related entries	1.04 ± 0.13	0.999 ± 0.098	1.01 ± 0.088	0.973 ± 0.14	1.07 ± 0.084	1.06 ± 0.09
Q5VV50 and related entries (UniProt Q5VV52)	1.1 ± 0.014	1.12 ± 0.058	1.16 ± 0.037	1.29 ± 0.096	1.26 ± 0.053	1.24 ± 0.062
UniProt Q5JS54 and related entries	0.977 ± 0.024	0.9954 ± 0.0085	0.909 ± 0.033	0.956 ± 0.029	0.96 ± 0.046	0.93 ± 0.046
RSBN1L (UniProt Q6PCB5)	1.29 ± 0.022	1.36 ± 0.022	1.4 ± 0.025	1.45 ± 0.075	1.46 ± 0.075	1.5 ± 0.12
LMBRD2 (UniProt Q68DH5)	1.02 ± 0.074	1.02 ± 0.063	1 ± 0.1	1.05 ± 0.083	0.998 ± 0.1	1.03 ± 0.13
SMYD5 (UniProt Q6GMV2)	0.983 ± 0.098	0.962 ± 0.063	0.948 ± 0.015	0.883 ± 0.11	0.926 ± 0.03	0.963 ± 0.024
UniProt Q6PD74 and related entries	0.958 ± 0.056	0.985 ± 0.076	0.972 ± 0.087	0.981 ± 0.056	0.958 ± 0.025	0.948 ± 0.078
CROCC (UniProt Q5TZA2)	0.944 ± 0.083	0.974 ± 0.085	0.935 ± 0.058	0.991 ± 0.061	0.921 ± 0.035	0.91 ± 0.093
UniProt Q5JTD0 and related entries	0.926 ± 0.052	0.971 ± 0.033	0.953 ± 0.038	0.947 ± 0.043	0.901 ± 0.056	0.921 ± 0.057
ANKRD39 (UniProt Q53RE8)	0.995 ± 0.047	0.9965 ± 0.007	1.02 ± 0.021	0.938 ± 0.038	0.97 ± 0.11	1 ± 0.024
FAM91A1 (UniProt Q658Y4)	1.04 ± 0.066	1.03 ± 0.027	1.072 ± 0.0036	1.045 ± 0.0063	1.13 ± 0.024	1.11 ± 0.032
ALKBH5 (UniProt Q6P6C2)	1.23 ± 0.059	1.29 ± 0.072	1.31 ± 0.091	1.26 ± 0.17	1.37 ± 0.085	1.42 ± 0.087
KLHL26 (UniProt Q53HC5)	1.11 ± 0.04	1.26 ± 0.1	1.17 ± 0.05	1.08 ± 0.068	1.17 ± 0.044	1.17 ± 0.3
RFWD3 (UniProt Q6PCD5)	1 ± 0.04	0.999 ± 0.06	1.04 ± 0.059	1 ± 0.061	1.07 ± 0.018	1.05 ± 0.043
UniProt Q53F19	0.961 ± 0.029	1.02 ± 0.019	1.06 ± 0.013	1.17 ± 0.036	1.15 ± 0.022	1.2 ± 0.025
ZNF318 (UniProt Q5VUA4)	1.07 ± 0.087	1.03 ± 0.12	1.07 ± 0.1	1.1 ± 0.18	1.09 ± 0.16	1.11 ± 0.13
RPRD2 (UniProt Q5VT52)	1.04 ± 0.059	1.04 ± 0.042	1.05 ± 0.043	1.08 ± 0.058	1.04 ± 0.041	1.04 ± 0.02
EDC4 (UniProt Q6P2E9)	1.01 ± 0.026	1.012 ± 0.0057	1.001 ± 0.0078	1 ± 0.026	0.993 ± 0.022	1.02 ± 0.015
UniProt Q5FBB7 and related entries	1.01 ± 0.053	1.034 ± 0.0075	0.983 ± 0.044	1.09 ± 0.024	0.902 ± 0.044	0.898 ± 0.096
UniProt Q4KMQ2 and related entries	0.984 ± 0.033	0.979 ± 0.054	0.954 ± 0.029	0.93 ± 0.047	0.935 ± 0.032	0.97 ± 0.059

Target	NP40-soluble protein abundance (concentration: 1mM)	NP40-soluble protein abundance (concentration: 2mM)	NP40-soluble protein abundance (concentration: 4mM)	NP40-soluble protein abundance (concentration: 6mM)	NP40-soluble protein abundance (concentration: 8mM)	NP40-soluble protein abundance (concentration: 10mM)
UniProt Q6DHV7-2|Q6DHV7 and related entries	0.989 ± 0.027	1 ± 0.018	0.985 ± 0.034	1.08 ± 0.057	0.943 ± 0.13	0.9496 ± 0.0053
UniProt Q504Q3 and related entries	1.04 ± 0.11	1.05 ± 0.072	1.07 ± 0.039	0.979 ± 0.08	1.09 ± 0.011	1.08 ± 0.05
NAIF1 (UniProt Q69YI7)	1.03 ± 0.11	1.02 ± 0.066	0.987 ± 0.076	1 ± 0.087	0.932 ± 0.11	0.965 ± 0.15
LACTB2 (UniProt Q53H82)	1.01 ± 0.011	1 ± 0.039	0.979 ± 0.017	0.963 ± 0.068	1 ± 0.034	0.977 ± 0.039
Q5TBP9 and related entries (UniProt Q9BX40)	1.05 ± 0.06	1.06 ± 0.059	1.07 ± 0.044	1.16 ± 0.056	1.15 ± 0.034	1.18 ± 0.028
UniProt Q6PCB8 and related entries	0.937 ± 0.058	0.91 ± 0.036	0.943 ± 0.046	0.945 ± 0.044	0.9504 ± 0.0084	0.897 ± 0.073
INTS5 (UniProt Q6P9B9)	1.09 ± 0.11	1.06 ± 0.058	1.14 ± 0.019	1.06 ± 0.064	1.21 ± 0.13	1.29 ± 0.15
UniProt Q6P1J9	0.978 ± 0.018	0.984 ± 0.013	0.969 ± 0.034	0.99 ± 0.033	0.899 ± 0.028	0.799 ± 0.019
Q5T063 and related entries (UniProt Q9NZJ6)	1.027 ± 0.0033	1.08 ± 0.089	1.06 ± 0.051	1.08 ± 0.066	1.06 ± 0.038	1 ± 0.08
UniProt Q6P1X5 and related entries	1.07 ± 0.071	1.08 ± 0.08	1.19 ± 0.03	1.06 ± 0.037	1.2 ± 0.076	1.186 ± 0.011
UniProt Q5MIZ7-2|Q5MIZ7-3	0.987 ± 0.021	0.973 ± 0.018	0.965 ± 0.018	1.01 ± 0.031	0.956 ± 0.014	0.97 ± 0.017
UniProt Q52LJ0-2	1.02 ± 0.11	0.962 ± 0.016	0.945 ± 0.022	1 ± 0.031	0.9744 ± 0.0044	0.943 ± 0.029
HP1BP3 (UniProt Q5SSJ5)	0.989 ± 0.065	1.04 ± 0.04	1.08 ± 0.051	1.2 ± 0.11	1.18 ± 0.025	1.42 ± 0.058
NXN (UniProt Q6DKJ4)	0.998 ± 0.07	1.06 ± 0.056	1.1 ± 0.058	0.958 ± 0.1	0.968 ± 0.097	1.03 ± 0.039
SNRNP48 (UniProt Q6IEG0)	1.22 ± 0.12	1.27 ± 0.15	1.35 ± 0.15	1.47 ± 0.22	1.44 ± 0.24	1.54 ± 0.2
UniProt Q6P2P2	1.02 ± 0.079	1.03 ± 0.096	1 ± 0.079	0.977 ± 0.11	0.999 ± 0.066	0.997 ± 0.075
UniProt Q4LE39 and related entries	0.992 ± 0.041	0.978 ± 0.037	0.971 ± 0.025	1.01 ± 0.058	0.965 ± 0.032	0.999 ± 0.031
Q5TH58 and related entries (UniProt Q9H6K1)	0.972 ± 0.039	0.981 ± 0.065	1.09 ± 0.027	1.02 ± 0.12	0.977 ± 0.04	0.985 ± 0.092
UniProt Q6P996 and related entries	1.03 ± 0.029	1.01 ± 0.042	1 ± 0.045	0.986 ± 0.076	0.984 ± 0.053	0.986 ± 0.049
CNNM4 (UniProt Q6P4Q7)	1.01 ± 0.11	1.01 ± 0.074	1.01 ± 0.071	1.04 ± 0.099	1 ± 0.048	1 ± 0.013
